Assay [1] has as its target T1, GST-MARCH8 (UniProt Q5T0T0).
T1 sequence: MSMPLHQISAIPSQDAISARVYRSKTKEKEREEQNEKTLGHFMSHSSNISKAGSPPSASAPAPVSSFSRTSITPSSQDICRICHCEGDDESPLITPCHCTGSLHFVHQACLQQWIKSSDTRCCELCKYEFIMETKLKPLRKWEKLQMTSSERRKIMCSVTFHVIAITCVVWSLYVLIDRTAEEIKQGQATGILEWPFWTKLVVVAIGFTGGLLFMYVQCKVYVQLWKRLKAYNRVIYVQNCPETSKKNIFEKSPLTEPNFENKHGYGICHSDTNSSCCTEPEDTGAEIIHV
Kind of assay: pull-down; GST affinity isolation (Pierce GST pull-down kit) with GST-MARCH8 or GST-NDP52 and PTBP1 expressed in BL21 (DE3) and purified beforehand, Western blot; both purified. For orientation: A western blot detects proteins with antibodies after separation by electrophoresis.

Sequences of proteins named here, by UniProt entry; tags and fusion partners are left off.
UniProt P26599: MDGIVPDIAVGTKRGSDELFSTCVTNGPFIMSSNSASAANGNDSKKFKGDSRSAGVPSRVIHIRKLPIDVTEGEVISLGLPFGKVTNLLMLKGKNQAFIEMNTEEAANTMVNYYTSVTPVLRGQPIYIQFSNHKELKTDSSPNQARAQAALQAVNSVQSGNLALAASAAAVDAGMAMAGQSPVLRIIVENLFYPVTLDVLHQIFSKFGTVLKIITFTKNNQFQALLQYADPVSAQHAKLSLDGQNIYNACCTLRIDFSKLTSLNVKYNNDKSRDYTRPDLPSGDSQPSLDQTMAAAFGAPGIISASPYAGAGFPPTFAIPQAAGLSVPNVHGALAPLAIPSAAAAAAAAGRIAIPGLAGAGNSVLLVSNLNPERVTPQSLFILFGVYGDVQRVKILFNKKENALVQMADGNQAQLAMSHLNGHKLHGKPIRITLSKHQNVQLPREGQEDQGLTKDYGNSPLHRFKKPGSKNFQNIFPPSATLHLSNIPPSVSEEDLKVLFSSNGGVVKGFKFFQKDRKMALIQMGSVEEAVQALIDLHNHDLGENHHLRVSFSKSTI

In assay [2] the target is T2, GST-NDP52 (UniProt Q13137).
T2 sequence: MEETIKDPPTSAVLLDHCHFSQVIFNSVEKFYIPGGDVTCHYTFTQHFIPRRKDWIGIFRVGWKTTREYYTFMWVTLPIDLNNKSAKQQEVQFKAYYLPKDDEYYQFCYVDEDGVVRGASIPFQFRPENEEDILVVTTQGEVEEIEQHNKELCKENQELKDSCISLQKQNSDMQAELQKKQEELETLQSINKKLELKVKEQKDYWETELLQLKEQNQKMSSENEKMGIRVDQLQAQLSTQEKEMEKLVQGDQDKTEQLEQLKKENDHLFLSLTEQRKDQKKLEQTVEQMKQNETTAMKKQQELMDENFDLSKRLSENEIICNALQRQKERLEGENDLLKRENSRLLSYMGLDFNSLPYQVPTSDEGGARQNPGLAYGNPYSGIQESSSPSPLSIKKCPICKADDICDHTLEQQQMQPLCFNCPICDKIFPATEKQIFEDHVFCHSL
Described as above.

No constants are given. Whether binding was seen depends on the method and setting. Some binding calls cover weakened binding; strength is not graded here. Where a sequence is shown, tags or fusion partners need not be part of it.

Regarding “PTBP1, full length, expressed in E. coli BL21 (DE3) (from UniProt P26599 1-557)”, the binding result in assay [1] and in assay [2] was “binds” in each case.
